PubChem BioAssay AID652272, Drosophila RNAi Screening Center | 2013
Assay: 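Genes whose knock-down decreases or increases Hedgehog reporter output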 (primary screen). System: Drosophila clone 8 (Cl8) cells. Reagents: long dsRNA against Drosophila genes. Detection: 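Plate reader light from a firefly reporter under a ptc promoter fragment that responds to Hedgehog, with Renilla light as transfection reference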. Scale: firefly Hh reporter signal: higher = more ptc reporter light; Renilla reference signal: higher = more Renilla control light. Active means: 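Hit when the z-score averaged over two replicates is under -2 or over +3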. Calls: active = hit: reporter lowered or raised; inactive = not a hit.
In all, the deposit lists about 21,000 reagents; this is a random part of those with a known target gene and a result. Over the whole deposit, 503 (2.4%) are marked active. 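Raw plate light values, not normalised; calls rest on replicate z-scores that were not deposited; hits include reporter decreases as well as increases.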 Entries without a mark were called inactive. Not given: the amount of reagent, the time to read-out.

no.	Gene	DRSC id	firefly Hh reporter signal, replicate 1	firefly Hh reporter signal, replicate 2	Renilla reference signal, replicate 1	Renilla reference signal, replicate 2
1	Pgant1 (Polypeptide N-Acetylgalactosaminyltransferase 1)	DRSC07095	1.01e5	37205	2745	2044
2	Asph (Aspartyl beta-hydroxylase)	DRSC06783	1.03e5	76772	2744	5161
3	Asph (Aspartyl beta-hydroxylase)	DRSC07171	1.25e5	68721	5225	3139
4	MrgBP (MRG/MORF4L binding protein)	DRSC06417	85608	42243	2192	4135
5	CG7275	DRSC10796	98640	59424	3916	2684
6	Cwc25	DRSC00545	1.21e5	76545	3227	2675
7	na (narrow abdomen)	DRSC19639	1.30e5	2.05e5	4903	9352
8	Cyt-c-p (Cytochrome c proximal)	DRSC03310	1.01e5	69929	1963	5930
9	CG7789	DRSC16312	94471	81860	2146	2048
10	CG14096	DRSC10099	1.69e5	1.57e5	5651	4513
11	Acp26Ab (Accessory gland protein 26Ab)	DRSC01856	1.30e5	84160	3404	7876
12	CG18789	DRSC02696	1.46e5	91876	3392	8124
13	CG4953	DRSC02792	64103	42876	2950	1703
14	CG3527	DRSC18307	73602	1.19e5	2708	5433
15	CG5421	DRSC02858	1.16e5	63212	2880	5596
16	Cyp6w1 (Cytochrome P450 6w1)	DRSC04909	1.23e5	79699	5013	3194
17	CG4951	DRSC15682	83696	97910	1478	2343
18	CG33467	DRSC05525	1.92e5	4.60e5	6080	17474
19	CG6656	DRSC16085	1.38e5	81944	5063	3265
20	CG6044	DRSC04522	1.06e5	72749	1666	5825
21	cos (costa)	DRSC07598	70519 (active)	47995	4162	3376
22	CG10183	DRSC14203	3.72e5	1.02e5	23188	3305
23	p120ctn (p120 catenin)	DRSC07753	62915	38210	2182	2658

Called active (from the list above):
Gene	DRSC id	firefly Hh reporter signal, replicate 1	firefly Hh reporter signal, replicate 2	Renilla reference signal, replicate 1	Renilla reference signal, replicate 2
cos (costa)	DRSC07598	70519 (active)	47995	4162	3376
